PubChem BioAssay AID1259331, Drosophila RNAi Screening Center, 2017
The deposit covers about 3,100 reagents; shown is a random part of them. Over the whole deposit, 126 (4.1%) were called active. 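Calls are per reagent; zinc was so toxic that few knock-downs lowered ATP further, so most hits raise ATP.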 Raw values vary from plate to plate and are shown uncorrected. Entries without a mark were called inactive. A plus sign joins genes that one reagent is predicted to hit. No sequences are given here. Not given: the amount of reagent.

- Aim: 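Fly transmembrane-protein genes that affect zinc toxicity in cultured cells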 (primary screen)
- Cells: Drosophila S2R+ cells
- Reagents: long dsRNA against Drosophila genes
- Duration: 5 days (4 days knock-down, then 1 day zinc)
- Treatment: zinc chloride at 15 mM final level for 1 day
- Read-out: 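Luminescent ATP assay standing in for viability; Z score is the mean over three replicate plates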
- Direction: mean Z score: higher = more ATP than other wells, better survival under zinc; ATP luminescence: higher = more ATP, more viable cells
- Hit rule: 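a reagent is called a hit when its Z score is above 1.5 or below -1.5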
- Calls: active = hit, ATP up or down; inactive = not a hit

Target gene	DRSC id	mean Z score	ATP luminescence, replicate 1	ATP luminescence, replicate 2
ccb (central complex broad)	DRSC20501	-0.201	39268	40108
Ostgamma (Oligosaccharide transferase gamma subunit)	DRSC03074		4.29e5	4.49e5
Ostgamma (Oligosaccharide transferase gamma subunit)	DRSC39487	0.145	53208	51406
CG12990	DRSC19510	0.294	46057	46072
caps (capricious)	DRSC11333	-0.0188	74948	60186
caps (capricious)	DRSC22224	0.0297	49778	60581
Nup50 (Nucleoporin 50kD)	DRSC06827	-0.043	32222	31553
Nup50 (Nucleoporin 50kD)	DRSC26470	0.895	79019	66372
CG33296	DRSC00998	-0.15	40913	43061
CG33296	DRSC23839	-0.402	63375	46880
Sec24CD (Secretory 24CD)	DRSC00300	-1.03	43588	39508
Gr93b (Gustatory receptor 93b)	DRSC22063	-0.0377	48114	46331
Gr93b (Gustatory receptor 93b)	DRSC39438	-0.509	38308	47960
Eato (Engulfment ABC Transporter in the ovary)	DRSC01891	-0.0807	54390	55813
Eato (Engulfment ABC Transporter in the ovary)	DRSC03061	-0.354	48234	38788
tkv (thickveins)	DRSC03623	-0.277	48791	56053
tkv (thickveins)	DRSC22606	0.349	51372	55350
tkv (thickveins)	DRSC25957	-0.103	54663	52116
Grl40a (Gustatory receptor-like 40a)	DRSC03677	-0.247	37605	44634
Grl40a (Gustatory receptor-like 40a)	DRSC39639	-0.067	61123	55702
CG10171	DRSC09711	-0.341	27474	29959
CG10171	DRSC26279	-0.331	48577	49023
G6P (Glucose-6-Phosphatase)	DRSC00414	-0.513	41325	40811
G6P (Glucose-6-Phosphatase)	DRSC27121	-0.497	44685	53364
CG44247 + veg (retired record)	DRSC07714	-0.00783	61401	74558
Pex12 (Peroxin 12)	DRSC00622	5.3 (active)	1.03e5	1.11e5
Pex12 (Peroxin 12)	DRSC27149	-0.147	65523	51029
Ir56d (Ionotropic receptor 56d)	DRSC06590	-0.00113	69773	70939
Ir56d (Ionotropic receptor 56d)	DRSC28383	0.145	63599	63650
Ctr1A (Copper transporter 1A)	DRSC18336	0.305	71042	71179
CG9308	DRSC04539	0.171	52590	37553
CG9308	DRSC28962	0.175	63153	65056
Mrp4 (Multidrug resistance protein 4)	DRSC14931	-0.47	33353	50189
Mrp4 (Multidrug resistance protein 4)	DRSC28151	-1.26	41771	37898
CG7309	DRSC03045	-0.149	51008	45200
CG7309	DRSC27252	0.0301	64868	55556
Ir21a + asRNA:CR43609	DRSC00528	-0.24	42028	45268
GluRIIA (Glutamate receptor IIA)	DRSC03334	-0.144	46486	38770
rho-5 (rhomboid-5)	DRSC26239	0.161	65674	45285
rho-5 (rhomboid-5)	DRSC39726	-0.4	56862	52658
CG5078	DRSC11762	-0.305	73186	54201
Sugb (Sugar baby)	DRSC10815	-0.0796	31450	29084
Sugb (Sugar baby)	DRSC39654	-0.327	52367	54579
nAChRalpha3 (nicotinic Acetylcholine Receptor alpha3)	DRSC18800	0.272	72071	69018
nAChRalpha3 (nicotinic Acetylcholine Receptor alpha3)	DRSC25751	0.0594	56876	53567
CG13810	DRSC22838	0.0622	48930	46023
CG13810	DRSC27859	-0.0834	56122	45552
Cad96Cb (Cadherin 96Cb)	DRSC14243	1.09	44514	78517
Cad96Cb (Cadherin 96Cb)	DRSC14665	-0.0454	45731	40965
Cad96Cb (Cadherin 96Cb)	DRSC28720	0.292	68709	63016
CG8837	DRSC00711	-0.228	42643	43228
CG8837	DRSC29440	0.217	68240	61181
ChT (Choline transporter)	DRSC16296	-0.156	43759	41685

Active calls, among the entries above:
Target gene	DRSC id	mean Z score	ATP luminescence, replicate 1	ATP luminescence, replicate 2
Pex12 (Peroxin 12)	DRSC00622	5.3 (active)	1.03e5	1.11e5

The listing continues.
Target gene	DRSC id	mean Z score	ATP luminescence, replicate 1	ATP luminescence, replicate 2
GC (gamma-glutamyl carboxylase)	DRSC08396	-0.0998	68795	74558
GC (gamma-glutamyl carboxylase)	DRSC27222	0.216	59963	65246
ZnT33D (Zinc transporter 33D)	DRSC02591	0.257	54853	39885
ZnT33D (Zinc transporter 33D)	DRSC39537	0.0397	50419	54957
CG30394	DRSC04074	0.64	57330	40605
CG30394	DRSC04260	0.257	69687	70956
pippin	DRSC04489	0.0846	32324	32616
pippin	DRSC39700	1	81566	67273
Or42a (Odorant receptor 42a)	DRSC04912	0.0146	1.04e5	74428
Gr59b (Gustatory receptor 59b)	DRSC04179	-0.416	48132	39816
mthl15 (methuselah-like 15)	DRSC01120	-0.194	41256	43382
mthl15 (methuselah-like 15)	DRSC39743	0.261	62278	65468
Tsp42Ed (Tetraspanin 42Ed)	DRSC05940	-0.487	80752	65365
Tsp42Ed (Tetraspanin 42Ed)	DRSC39728	1.47	80784	86085
brv1 (brivido-1)	DRSC11076	-0.0339	75138	61301
CG8323	DRSC07149	-0.116	64241	73323
salt (salty dog)	DRSC25514	0.0214	61345	62107
CG6052	DRSC10574	-0.0483	78246	59054
Ir100a (Ionotropic receptor 100a)	DRSC25881	-0.262	47514	51509
Ir100a (Ionotropic receptor 100a)	DRSC39525	0.385	53293	52658
AstA-R2 (Allatostatin A receptor 2)	DRSC24820	-0.204	53018	50177
Ir94d (Ionotropic receptor 94d)	DRSC21568	-0.0101	46349	49023
loj (logjam)	DRSC09791	-0.304	29273	31570
loj (logjam)	DRSC39866	-0.223	54887	58025
CG13887	DRSC08357	-0.296	31485	28742
Tsp47F (Tetraspanin 47F)	DRSC07325	7.72 (active)	2.12e5	2.18e5
Afg3l2 (AFG3 like matrix AAA peptidase subunit 2)	DRSC10657	-0.735	23751	26002
Afg3l2 (AFG3 like matrix AAA peptidase subunit 2)	DRSC29981	-0.0656	48063	45068
Hacd2 (3-hydroxyacyl-CoA dehydratase 2)	DRSC03181	-1.24	35595	34090
fj (four-jointed)	DRSC07619	-0.179	69498	70287
fj (four-jointed)	DRSC27535	-0.973	56602	38308
syd (sunday driver)	DRSC10963	-0.0958	28605	29448
syd (sunday driver)	DRSC24418	-0.407	50395	51166
rdo (reduced ocelli)	DRSC02452	-0.129	51235	57768
rdo (reduced ocelli)	DRSC25572	-0.438	42902	53996
